Measurements: patent publication US4808701A (Hoffmann-La Roche Inc., priority 1987, dated 1989)
Strings that start with PEPTIDE1 are HELM notation: dots part the residues, brackets hold end groups and non-standard residues.

Assay: general procedure: Boc solid-phase peptide synthesis; benzylhydrylamine (BHA) resin, styrene-1% divinylbenzene, 200-400 mesh (Beckman Instruments); symmetrical anhydrides of Boc-amino acids
Settings: for cyclisation yield: cyclisation step; for step yield: late stage modification step

Row | Substance | cyclisation yield | step yield
1 | PEPTIDE1{[ac].[Tyr(SO3H)].K.G.W.M.D.[NMePhe].[am]}$PEPTIDE1,PEPTIDE1,3:R3-7:R3$$$V2.0 | 45% | 87%
2 | PEPTIDE1{[Tyr(SO3H)].M.G.W.E.[Thr(SO3H)].[NMePhe].[am]}$PEPTIDE1,PEPTIDE1,1:R1-5:R3$$$V2.0 | 21% yield | 94%
3 | PEPTIDE1{[sY].M.E.W.M.[sT].[NMeF].[am]}$$$$V2.0 | 41% yield | 45%
